# In the supplement of paper PMC8166895:
# Structures can show the parent of a compound that is named as a salt. The list shows a part of the results. Most entries show no effect beyond the scatter of the controls.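 A single-replicate pilot screen of approved drugs and clinical or known-target compounds measured melting temperature via differential scanning fluorimetry. Top stabilizing hits raised the melting point by 2 °C or more; negative shifts indicate destabilization.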
# Test system: SARS-CoV-2 main protease (Mpro, nsp5)
# Assay: thermal shift ΔTm of Mpro relative to plate average Tm; higher = stronger thermal stabilization of Mpro (binding)
# Settings: 10 µM; protein concentration 1 µM
row,SMILES,thermal shift ΔTm of Mpro
1,O=C1NC(=O)C(=Cc2ccc(-c3ccc(F)cc3)o2)S1 (stereo in doubt),0.41 °C
2,CC(C)(O)c1ccccc1CC[C@@H](SCC1(CC(=O)O)CC1)c1cccc(/C=C/c2ccc3ccc(Cl)cc3n2)c1 [Montelukast Sodium],-0.0297 °C
3,O=C1NC(=O)C(c2ccccc2)(c2ccccc2)N1 [Phenytoin],0.287 °C
4,NC(N)=NCCC[C@H](N)C(=O)NCC(=O)N[C@@H](CC(=O)O)C(=O)O,-0.0745 °C
5,CCN1CC2(OC(=O)c3ccccc3NC(C)=O)CCC(OC)C34C1C(CC23)C1(O)CC(OC)C2CC4C1(O)C2OC (stereo not given) [Lappaconite HBr],-0.0383 °C
6,CCNC(=O)/C=C/c1cccc(Br)c1 [Cinromide],0.0457 °C
7,C=CCCCCCCCCC(=O)[O-].C=CCCCCCCCCC(=O)[O-].[Zn+2] [Zinc undecylenate],0.0768 °C
8,COC(=O)Nc1nc2cc([S+]([O-])c3ccccc3)ccc2[nH]1 (stereo not given) [Oxfendazole],0.0118 °C
9,Cc1c(CN(C)C(=O)/C=C/c2cnc3c(c2)CCC(=O)N3)oc2ccccc12,-0.0336 °C
10,COc1ccccc1OCC(O)COC(N)=O (stereo not given) [Methocarbamol],0.0171 °C
11,O=C1NCCCc2c1oc1ccc(O)cc21,-0.0815 °C
12,Nc1ccn([C@@H]2CS[C@H](CO)O2)c(=O)n1 [Lamivudine],0.0344 °C
13,CN(C)C(=O)Oc1ccc[n+](C)c1 [Pyridostigmine Bromide],-0.13 °C
14,CCc1c(Cl)c(O)c(Cl)c(O)c1C(=O)O[C@H]1[C@H](O)[C@H](OC)[C@H](OC/C2=C\C=C\C[C@H](O)/C(C)=C/[C@H](CC)[C@@H](O[C@@H]3OC(C)(C)[C@@H](OC(=O)C(C)C)[C@H](O)[C@@H]3O)/C(C)=C/C(C)=C/C[C@@H]([C@@H](C)O)OC2=O)O[C@@H]1C [Fidaxomicin],0.0114 °C
15,Cc1cc(N)c2ccccc2[n+]1CCCCCCCCCC[n+]1c(C)cc(N)c2ccccc21 [Dequalinium chloride],-0.249 °C
16,CN1CCN(c2nc3ccccc3nc2Cl)CC1,-0.111 °C
17,COc1cc2c(cc1OC)C(Cc1ccc(O)cc1)N(C)CC2 (stereo not given) [Armepavine],0.0187 °C
18,CO/N=C(\C(=O)N[C@@H]1C(=O)N2C(C(=O)OC(C)OC(C)=O)=C(COC(N)=O)CS[C@H]12)c1ccco1 (stereo not given in full) [Cepazine],-0.0535 °C

row,SMILES,thermal shift ΔTm of Mpro
1,C=CC(=O)Nc1cccc(Nc2nc(Nc3ccc(OCCOC)cc3)ncc2F)c1,0.148 °C
2,N#Cc1c(NC(=O)c2cccc3ccccc23)sc2c1CCCC2 [JNK Inhibitor IX],-0.0348 °C
3,CCC(=O)Nc1cccc(Oc2nc(Nc3ccc(N4CCN(C)CC4)cc3OC)ncc2Cl)c1,0.317 °C
4,C[C@@H]1O[C@@H](O[C@H]2[C@H](OC(=O)[C@]34CCC(C)(C)C[C@H]3C3=CC[C@@H]5[C@@]6(C)C[C@H](O)[C@H](O[C@@H]7O[C@H](CO)[C@@H](O)[C@H](O)[C@H]7O)C(CO)(CO)[C@@H]6CC[C@@]5(C)[C@]3(C)C[C@H]4O)OC[C@H](O)[C@@H]2O)[C@H](O)[C@H](O)[C@H]1O[C@@H]1OC[C@@H](O)[C@H](O)[C@H]1O [Deapi-platycodin D],-0.112 °C
5,CC(C)n1nc(-c2ccc(NC(=O)Nc3cc(C(F)(F)F)ccc3F)cc2)c2c(N)ncnc21,0.357 °C
6,Cn1cc(-c2ccc3c(c2)CCN3C(=O)Cc2cccc(C(F)(F)F)c2)c2c(N)ncnc21,-0.316 °C
7,Oc1cccc(-c2nc(N3CCOCC3)c3oc4ncccc4c3n2)c1,-0.00626 °C
8,CCOc1cc2c(c(F)c1OCC)C(=N)N(CC(=O)c1cc(N3CCOCC3)c(OC)c(C(C)(C)C)c1)C2 [Atopaxar Hydrobromide],-0.39 °C
9,Fc1ccc(-c2c3cccc(C(F)(F)F)c3nn2Cc2ccc(F)cc2Cl)cc1,0.103 °C
10,CC(=O)OCC(=O)[C@H]1CC[C@H]2[C@@H]3CCC4=CC(=O)CC[C@]4(C)[C@H]3CC[C@]12C [Deoxycorticosterone acetate],-0.0493 °C
11,Cc1cc(C(=O)Nc2cccc(C(=O)Nc3cccc(C(F)(F)F)c3)c2)on1,-0.0169 °C
12,N#C/C(=C\c1ccc(O)c(O)c1)C(=O)NCc1ccccc1 [AG-490 (Tyrphostin B42)],0.441 °C
13,Cc1ccc2nc(NC(=O)CSc3nc4c(c(=O)n3-c3ccccc3)SCC4)sc2c1,-0.108 °C
14,C#C[C@]1(O)CC[C@H]2[C@@H]3CCC4=CC(=O)CC[C@@H]4[C@H]3CC[C@@]21CC [Levonorgestrel],-0.185 °C
15,N=C(N)NCCN1CCCCCCC1 [Guanethidine Monosulfate],0.166 °C
16,CC(C)(Sc1cc(C(C)(C)C)c(O)c(C(C)(C)C)c1)Sc1cc(C(C)(C)C)c(OC(=O)CCC(=O)O)c(C(C)(C)C)c1 [Succinobucol],-0.656 °C
17,CC1(C)[C@@H](OC(=O)CCC(=O)O)CC[C@]2(C)[C@H]3C(=O)C=C4[C@@H]5C[C@@](C)(C(=O)O)CC[C@]5(C)CC[C@@]4(C)[C@]3(C)CC[C@@H]12 [Carbenoxolone disodium],0.113 °C

# Reprinted from the results shown, 2 compounds:
row,SMILES,thermal shift ΔTm of Mpro
1,C=CC(=O)Nc1cccc(Nc2nc(Nc3ccc(OCCOC)cc3)ncc2F)c1,0.148 °C
2,N#Cc1c(NC(=O)c2cccc3ccccc23)sc2c1CCCC2 [JNK Inhibitor IX],-0.0348 °C
